These are yes or no findings as the source states them, for the method shown.
Columns and labels:
Assay in all cases: condition: ARPCA up to 2000 μM (as described for FGF8b); SPR; BIAcore X-100; FGF8b (20 μg/ml in 10 mM sodium acetate, pH 6.0) or other FGFs (10 mM sodium acetate at optimal pH) immobilised on a CM5 sensor chip by EDC/NHS; peptide injected (ARPCA 8 μM to 2000 μM), 4 min at 30 μl/min, 10 min dissociation, in HBS; equilibrium values fitted with the Langmuir equation for monovalent binding; both purified
FGF6 = molecular target: T1, FGF6 (UniProt P10767)
T1 sequence: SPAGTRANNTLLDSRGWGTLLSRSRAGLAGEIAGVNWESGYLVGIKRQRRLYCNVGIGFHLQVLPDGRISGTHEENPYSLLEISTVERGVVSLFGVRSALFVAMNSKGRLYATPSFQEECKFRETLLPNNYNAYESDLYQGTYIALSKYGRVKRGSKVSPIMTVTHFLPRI

FGF3 = molecular target: T2, FGF3 (UniProt P11487)
T2 sequence: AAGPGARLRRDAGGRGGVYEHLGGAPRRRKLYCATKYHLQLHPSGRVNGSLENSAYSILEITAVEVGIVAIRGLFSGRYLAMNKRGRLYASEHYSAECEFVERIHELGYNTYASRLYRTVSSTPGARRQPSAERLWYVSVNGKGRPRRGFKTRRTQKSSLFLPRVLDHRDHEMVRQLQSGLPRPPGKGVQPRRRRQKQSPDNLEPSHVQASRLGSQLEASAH

FGF4 = molecular target: T3, FGF4 (UniProt P08620)
T3 sequence: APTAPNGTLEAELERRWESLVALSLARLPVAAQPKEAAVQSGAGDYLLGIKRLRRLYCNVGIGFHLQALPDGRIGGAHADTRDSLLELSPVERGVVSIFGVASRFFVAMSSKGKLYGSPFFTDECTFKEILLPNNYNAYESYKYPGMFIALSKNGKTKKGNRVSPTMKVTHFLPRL

FGF10 = molecular target: T4, FGF10 (UniProt O15520)
T4 sequence: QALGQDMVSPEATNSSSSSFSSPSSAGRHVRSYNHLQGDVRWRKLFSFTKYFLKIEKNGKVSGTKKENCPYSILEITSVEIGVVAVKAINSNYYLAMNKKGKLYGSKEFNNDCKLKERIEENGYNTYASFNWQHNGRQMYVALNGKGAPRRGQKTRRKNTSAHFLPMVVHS

Measured: binding

ARPCA (N-terminal acetyl; C-terminal amide) [Ac-ARPCA-NH2, acetylated pentapeptide corresponding to PTX3(100-104)]
no binding: all assays above
